In PubChem BioAssay:
Several values for one entry are separate records, joined by “and”; a condition that tells them apart may be missing. Equal values may be shown once. The list shows a part of the results. Measured potencies and affinities stand elsewhere. Entries without a call are filed as inconclusive in the source.

Columns and labels:
[1] = Polyglutamine toxicity reduction dose response, whole organism Drosophila SCA1 model (AID 1595); settings: at 1 µM, stronger effect = higher value
PubChem AID 1597 = settings: Drosophila SCA1 polyglutamine model, at 1 µM, stronger effect = higher value

Structure (SMILES) | suppression of toxicity [1] | suppression of toxicity (PubChem AID 1597)
CC(C)NCC(O)c1cc(O)cc(O)c1 (stereo not drawn) | 10 | 11.4
NC(N)=NCCCCN=C(N)N | 4.29 | 9.29
O=C1O[C@@H](CO)[C@H](O)[C@@H](O)[C@@H]1O | 8.57 | 8.57
CC1(C)S[C@@H]2[C@H](NC(=O)[C@H](N)c3ccccc3)C(=O)N2[C@H]1C(=O)O | 0 | 2.15
CC(Oc1ccccc1)C(=O)NC1C(=O)N2C(C(=O)O)C(C)(C)S[C@H]12 (stereo partly drawn) | 10 | 17.9
CCC1(c2ccccc2)C(=O)NCNC1=O | 4.3 | 6.42
CC[C@H]1OC(=O)[C@H](C)[C@@H](O[C@H]2C[C@@](C)(OC)[C@@H](O)[C@H](C)O2)[C@H](C)[C@@H](O[C@@H]2O[C@H](C)C[C@H](N(C)C)[C@H]2O)[C@](C)(O)C[C@@H](C)/C(=N\OCOCCOC)[C@H](C)[C@@H](O)[C@]1(C)O | 0 | 17.1
CC(=O)Nc1ccc(S(=O)(=O)Nc2ccc([N+](=O)[O-])cc2)cc1 | 0 | 0.715
COc1c2occc2c(OC)c2c(=O)cc(C)oc12 | 0 | 3.57
CN=C(NC#N)NCCSCc1nc[nH]c1C | 0 | 0.715
CC1=NN(c2ccccc2)C(=O)C1 | 2.85 | 3.58
CN1CCN(CCC=C2c3ccccc3Sc3ccc(S(=O)(=O)N(C)C)cc32)CC1 | 4.29 | 2.86
CN(C)C(=O)Oc1cccc([N+](C)(C)C)c1 | 5.71 and 1.43 | 11.4 and 3.58
CC(CNC(=O)c1ccccc1)C(=O)OCC(=O)[C@@]12OC(C)(C)O[C@@H]1CC1C3CCC4=CC(=O)C=C[C@]4(C)[C@@]3(F)[C@@H](O)C[C@@]12C (stereo partly drawn) | 0 | 0.715
CC1CCCC(C)N1NC(=O)c1ccc(Cl)c(S(N)(=O)=O)c1 (stereo not drawn) | 1.43 | 5.71
CCN(CC)CCNC(=O)c1cc(S(C)(=O)=O)ccc1OC | 15.7 | 11.4
NC[C@H]1O[C@H](O[C@H]2C(O[C@@H]3O[C@H](CO)[C@@H](O)[C@H]3O)[C@@H](O)[C@H](N)C[C@@H]2N)[C@H](N)[C@@H](O)[C@@H]1O (stereo partly drawn) | 1.43 | 2.86
CCN(CC)CCNC(=O)COc1ccc(OC)cc1 | 1.43 | 10
CCN1CCN(C(=O)NC(C(=O)NC2C(=O)N3C(C(=O)O)=C(CSc4nnnn4C)CSC23)c2ccc(O)cc2)C(=O)C1=O (stereo not drawn) | 4.29 | 6.42
C=CCSCC1Nc2cc(Cl)c(S(N)(=O)=O)cc2S(=O)(=O)N1 (stereo not drawn) | 0 | 2.15
CC(=O)OCC(=O)[C@@]12OC3(CCCC3)O[C@@H]1CC1C3CCC4=CC(=O)C=C[C@]4(C)[C@@]3(F)[C@@H](O)C[C@@]12C (stereo partly drawn) | 0 | 0
CC(=O)OCC(=O)[C@@]1(O)CC[C@H]2C3CCC4=CC(=O)CCC4(C)[C@@]3(F)[C@@H](O)CC21C (stereo partly drawn) | 0 | 2.86
NCCc1ccc(O)c(O)c1 | 4.29 | 6.43

3 structures already listed, ordered by formula weight, ascending.
Structure (SMILES) | suppression of toxicity [1] | suppression of toxicity (PubChem AID 1597)
NC(N)=NCCCCN=C(N)N | 4.29 | 9.29
COc1c2occc2c(OC)c2c(=O)cc(C)oc12 | 0 | 3.57
CN1CCN(CCC=C2c3ccccc3Sc3ccc(S(=O)(=O)N(C)C)cc32)CC1 | 4.29 | 2.86

Next entries:

Structure (SMILES) | suppression of toxicity [1] | suppression of toxicity (PubChem AID 1597)
COc1ccc(CCC(=O)c2c(O)cc(O[C@@H]3O[C@H](CO)C(O)[C@H](O)C3O[C@@H]3O[C@@H](C)[C@H](O)[C@@H](O)[C@H]3O)cc2O)cc1O (stereo partly drawn) | 5.71 | 5.71
COc1cc(C(=O)NCc2ccc(OCCN(C)C)cc2)cc(OC)c1OC | 7.14 | 5.71
Nc1nc2c(c(=O)[nH]1)N(C=O)C(CNc1ccc(C(=O)N[C@@H](CCC(=O)O)C(=O)O)cc1)CN2 (stereo partly drawn) | 2.86 | 2.86
OCC(O)CN1CCN(c2ccccc2)CC1 (stereo not drawn) | 4.29 | 6.42
N.N.O=C(O)C1(C(=O)O)CCC1.[Pt] | 0 | 0.715
O=C1OC(c2ccc(O)cc2)(c2ccc(O)cc2)c2ccccc21 | 1.43 | 0.715
CC(C(=O)O)c1ccc(N2Cc3ccccc3C2=O)cc1 (stereo not drawn) | 2.85 | 7.86
CC(N)C(O)c1cccc(O)c1 (stereo not drawn) | 1.43 | 1.43
C#C[C@]1(O)CCC2C3CCc4cc(O)ccc4C3CC[C@@]21C (stereo partly drawn) | 0 | 1.43
CC/C(=C(/CC)c1ccc(O)cc1)c1ccc(O)cc1 | 14.3 | 0.715
OC(Cn1cncn1)(Cn1cncn1)c1ccc(F)cc1F | 0 | 0
NCC[C@@H](O)C(=O)N[C@@H]1C[C@H](N)[C@@H](O[C@H]2O[C@H](CN)[C@@H](O)[C@H](O)[C@H]2O)[C@H](O)[C@H]1O[C@H]1O[C@H](CO)[C@@H](O)[C@H](N)C1O (stereo partly drawn) | 0 | 7.14
C1CCN2C[C@H]3C[C@H](CN4CCCC[C@@H]34)[C@H]2C1 | 0 | 1.43
O=C(O)c1cn(C2CC2)c2cc(N3CCNCC3)c(F)cc2c1=O | 2.86 | 2.86
COc1c(OC)c2occc2c2oc(=O)ccc12 | 1.43 | 0.715
CC1CCc2cc(F)cc3c(=O)c(C(=O)O)cn1c23 (stereo not drawn) | 1.43 | 0.715
Cc1ccccc1C(OCCN(C)C)c1ccccc1 (stereo not drawn) | 0 | 4.29
Cc1cc(-c2ccccc2)nnc1NCCN1CCOCC1 | 4.29 | 12.1
O=C(O)CN(CCN(CC(=O)O)CC(=O)O)CC(=O)O | 4.29 | 5.71
COc1cc(Cc2cnc(N)nc2N)cc(OC)c1OC | 1.43 | 2.15
N[C@H](C(=O)O)[C@@H]1CC(Cl)=NO1 | 0 | 0
NC(=O)c1cccc(N)c1 | 1.43 | 2.86
CCn1cc(C(=O)O)c(=O)c2cc(F)c(N3CCNCC3)cc21 | 2.86 | 4.29

Structure (SMILES) | suppression of toxicity [1] | suppression of toxicity (PubChem AID 1597)
CC1COc2c(N3CCN(C)CC3)c(F)cc3c(=O)c(C(=O)O)cn1c23 (stereo not drawn) | 1.43 | 5
C=CC[C@@H]1/C=C(\C)C[C@H](C)C[C@H](OC)[C@H]2O[C@@](O)(C(=O)C(=O)N3CCCC[C@H]3C(=O)O[C@H](/C(C)=C/[C@@H]3CC[C@@H](O)[C@H](OC)C3)[C@H](C)[C@@H](O)CC1=O)[C@H](C)C[C@@H]2OC | 0 | 0
CC(=O)[C@@]1(O)CCC2C3C[C@H](C)C4=CC(=O)C=CC4(C)[C@@]3(F)[C@@H](O)C[C@@]21C (stereo partly drawn) | 4.29 | 4.29
CC(COc1ccccc1)NC(C)[C@H](O)c1ccc(O)cc1 (stereo partly drawn) | 0 | 5
COc1ccc(C2Sc3ccccc3N(CCN(C)C)C(=O)C2OC(C)=O)cc1 (stereo not drawn) | 0 | 7.86
CC1(C)O[C@@H]2C[C@H]3C4C[C@H](F)C5=CC(=O)C=CC5(C)[C@@]4(F)[C@@H](O)C[C@]3(C)[C@]2(C(=O)CO)O1 (stereo partly drawn) | 2.86 | 6.43
CCN(CC)CCNc1ccc(CO)c2sc3ccccc3c(=O)c12 | 0 | 12.9
CCCNCC(O)COc1ccccc1C(=O)CCc1ccccc1 (stereo not drawn) | 0 | 1.43
CC(=O)Oc1ccc(C(c2ccc(OC(C)=O)cc2)c2ccccn2)cc1 | 0 | 7.14
CN1C2CCC1CC(OC(=O)C(CO)c1ccccc1)C2 (stereo not drawn) | 0 | 4.29
Cn1c(=O)c2[nH]cnc2n(C)c1=O | 1.43 | 6.42
Cn1c([N+](=O)[O-])cnc1COC(N)=O | 0 | 12.9
COC(=O)C(N)CS (stereo not drawn) | 4.29 | 8.57
OCc1ccccc1O | 10 | 10.7
CN1Cc2c(N)cccc2C(c2ccccc2)C1 (stereo not drawn) | 8.57 | 10
CC1=C2C(=CO[C@H](C)[C@H]2C)C(=O)C(C(=O)O)=C1O | 17.1 | 20.7
CNC(C)[C@@H]1CC[C@@H](N)[C@@H](OC2[C@@H](N)C[C@@H](N)[C@H](OC3OC[C@](C)(O)[C@H](NC)[C@H]3O)[C@H]2O)O1 (stereo partly drawn) | 4.29 | 5.71
NCCCCC(N)C(=O)NC(Cc1c[nH]c2ccccc12)C(=O)NC(CCCCN)C(=O)O (stereo not drawn) | 2.86 | 15
N=C(N)c1ccc(OCCCCCOc2ccc(C(=N)N)cc2)cc1 | 0 | 0
C[C@]12CCC3c4ccc(O)cc4CCC3C1C[C@@H](O)[C@@H]2O (stereo partly drawn) | 12.9 | 2.15
O=C1C(O)=C(O)C(=O)C(O)=C1O | 4.29 | 3.57
CC(C)CC(NC(=O)CCN)C(=O)O (stereo not drawn) | 8.57 | 10.7
CN1CC(=O)N=C1N | 7.14 | 8.57

Structure (SMILES) | suppression of toxicity [1] | suppression of toxicity (PubChem AID 1597)
NCC(O)CC(=O)O (stereo not drawn) | 2.86 | 7.86
O=C(O)c1ccccc1OP(=O)(O)O | 0 | 2.15
COc1ccc2cc3[n+](cc2c1OC)CCc1cc2c(cc1-3)OCO2 | 2.86 | 6.42
C[C@H](CCC(=O)O)[C@H]1CCC2C3C(CC[C@@]21C)[C@@]1(C)CC[C@@H](O)C[C@H]1C[C@@H]3O (stereo partly drawn) | 0 | 0.715
COc1ccc(OC)c(C(O)CNC(=O)CN)c1 (stereo not drawn) | 2.85 | 2.85
CC(=O)N[C@@H](CS)C(=O)O | 2.85 | 13.6
NC(=O)NO | 1.43 | 1.43
C=CCc1ccc(O)c(OC)c1 | 5.71 | 12.9
NC(N)=NC(N)=Nc1ccccc1 | 1.43 | 0.715
CCCSc1ccc2nc(NC(=O)OC)[nH]c2c1 | 4.29 | 5.71
CC(C)NNC(=O)c1ccncc1 | 7.14 | 11.4
CCCCC1C(=O)N(c2ccccc2)N(c2ccc(O)cc2)C1=O (stereo not drawn) | 0 | 3.57
Cc1ccc(N(CC2=NCCN2)c2cccc(O)c2)cc1 | 0 | 10
CCC(C)C1NC(=O)C(CCNCS(=O)(=O)O)NC(=O)C(NC(=O)C(CCNCS(=O)(=O)O)NC(=O)C(NC(=O)C(CCNCS(=O)(=O)O)NC(=O)CCCCC(C)C)C(C)O)CCNC(=O)C(C(C)O)NC(=O)C(CCNCS(=O)(=O)O)NC(=O)C(CCNCS(=O)(=O)O)NC(=O)C(C(C)CC)NC1=O (stereo not drawn) | 4.29 | 9.29
C[C@]12CCC(=O)C=C1CCC1C2[C@@H](O)C[C@@]2(C)C1CC[C@]2(O)C(=O)CO (stereo partly drawn) | 0 | 2.15
CC[N+](C)(C)c1cccc(O)c1 | 1.43 | 14.3
CN(N=O)C(=O)N[C@@H]1[C@@H](O)[C@H](O)[C@@H](CO)O[C@@H]1O | 0 | 5.71
NCCCCN | 0 | 0
CN(C)CCC(c1ccccc1)c1ccccn1 (stereo not drawn) | 4.29 | 10
CC(C)NCC(O)COc1ccc(CC(N)=O)cc1 (stereo not drawn) | 0 | 0

As a short view, 2 of the compounds above.
Structure (SMILES) | suppression of toxicity [1] | suppression of toxicity (PubChem AID 1597)
NCC(O)CC(=O)O (stereo not drawn) | 2.86 | 7.86
O=C(O)c1ccccc1OP(=O)(O)O | 0 | 2.15
